From patent publication US20170218047A1, “NOVEL FUSION PARTNERS FOR THE PURPOSE OF CRYSTALLIZING G-PROTEIN COUPLED RECEPTORS” (THE SCRIPS RESEARCH INSTITUTE, priority 2011, published 2017)
Some entries share one result that the patent states for a list of compounds.

Assay: Size exclusion chromatography (SEC) of purified S1P1-fusion partner proteins
Type: physicochemical
Conditions: SEC traces, data not shown
Procedure: S1P1-fusion partner proteins (“S1P1 fusion receptors”) were purified from membranes by dodecyl-maltoside (DDM) extraction followed by immobilized metal affinity chromatography (IMAC) on Talon resin (Clontech) as detailed below. Frozen cellular membranes were thawed by adding room temperature lysis buffer to a total volume of 25 mL. The S1P1 receptor antagonist W146 was added to a final concentration of 125 μM. The mixture was allowed to incubate at room temperature for 1 hour to ensure complete saturation of the receptor with ligand followed by addition of iodoacetamide to a concentration of 1 mg/mL and an additional 1 hour incubation at 4° C. Receptor solubilization was initiated by addition of detergent and cholesteryl hemisuccinate (CHS) to achieve a final concentration of 0.5% DDM 0.1% CHS. The solubilization buffer consisted of the following mixture: 50 mM Hepes pH 7.5; 800 mM NaCl; 30 mM Imidazole; 0.1% DDM 0.02% CHS; 125 μM W146. […]
Eluted proteins were analyzed by size-exclusion chromatography (SEC) followed by SDS-PAGE. […] SEC fractions corresponding to S1P1-fusion partner proteins were evaluated separated by SDS-PAGE on a 10% gel and stained, confirming that each S1P1-fusion partner protein could be purified to near-homogeneity (data not shown).

Substance: S1P1-Bril: S1P1 receptor with cytochrome b562 RIL replacing part of ICL3, SEQ ID NO: 2
- concentration at which protein remained monodisperse: > 50000 µg/mL
